In PubChem BioAssay AID330 (DTP/NCI, 2004) one finds survivor count and T/C data, which are given here for 40 compounds.

In this test the test system is P388 leukemia ip, CD2F1 mice, survival T/C. The experiment in a line: NCI In Vivo Anticancer Drug Screen. Data for tumor model P388 Leukemia (intraperitoneal) in CD2F1 (CDF1) mice. The note with it: T/C endpoint: median survival time, higher T/C = longer survival.
Where [1] appears, read: dose: 400.0 mg/kg/injection, schedule: Q04DX003 (ip), vehicle: saline.
Where [2] appears, read: dose: 100.0 mg/kg/injection, schedule: Q01DX005 (ip), vehicle: saline with Tween-80.
Setting [3] is: dose: 200.0 mg/kg/injection, schedule: Q01DX005 (ip), vehicle: saline with Tween-80.
Setting [4] is: dose: 200.0 mg/kg/injection, schedule: Q01DX009 (ip), vehicle: saline with Tween-80.
[5] abbreviates: dose: 100.0 mg/kg/injection, schedule: Q01DX009 (ip), vehicle: saline with Tween-80.
Where [6] appears, read: dose: 200.0 mg/kg/injection, schedule: Q01DX005 (ip), vehicle: Klucel (hydroxypropylcellulose) (HPC).
The mark [7] stands for this setting: dose: 200.0 mg/kg/injection, schedule: Q01DX009 (ip), vehicle: Klucel (hydroxypropylcellulose) (HPC).
Setting [8] is: dose: 240.0 mg/kg/injection, schedule: Q01DX005 (ip), vehicle: saline with Tween-80.
The mark [9] stands for this setting: dose: 400.0 mg/kg/injection, schedule: Q01DX009 (ip), vehicle: saline with Tween-80.
Where [10] appears, read: dose: 50.0 mg/kg/injection, schedule: Q01DX009 (ip), vehicle: saline with Tween-80.
Where [11] appears, read: dose: 400.0 mg/kg/injection, schedule: Q01DX001 (ip), vehicle: Klucel (hydroxypropylcellulose) (HPC).
Where [12] appears, read: dose: 50.0 mg/kg/injection, schedule: Q01DX009 (ip), vehicle: Klucel (hydroxypropylcellulose) (HPC).
[13] abbreviates: dose: 100.0 mg/kg/injection, schedule: Q01DX009 (ip), vehicle: Klucel (hydroxypropylcellulose) (HPC).

The list does not hold the whole screen: it is rich in T/C values a quarter to a half above the control, in often repeated tests (any T/C) and in doses without a T/C. Further doses and runs are listed elsewhere. T/C: endpoint of the treated group in % of that of the vehicle group. Some doses have a count of surviving animals in place of a T/C: the source holds a T/C of zero for them, seemingly a mark for toxic or unscored doses. Some survivor counts are full or nearly so, which does not show that the dose was tolerated: survival well below the control is almost never listed, so the zero probably covers shortened survival too. Survivors were counted at the toxicity check, usually on the fifth day, unless a day is given; later deaths do not show. Schedule codes are those of the source, taken here to give the interval after Q, in days (D) or hours (H), and the number of doses after X. Some entries hold several experiments; the values are given in rising order. Some schedule codes hold Z or #, which are not explained here. For survival time, this PubChem deposit counts one and a half times the control or more as active, and values a quarter to a half above the control carry no call in these data; other NCI protocols may use other cut-offs.

As for `CNc1nc(-c2ccc(C(C)(C)C)cc2)c(-c2ccc(C(C)(C)C)cc2)[nH]1`, the survivor count (dose: 100.0 mg/kg/injection, schedule: Q04DX002 (ip), vehicle: saline with Tween-80) is reported as 1 of 6. `CC(=O)O/N=C/c1ccccn1`: the survivor count under setting [1] was 2 of 6 and 3 of 6.

Turning to `CCCCCCCCCCCCNNC(=O)[C@@H]1[C@H](c2cc(OC)c(OC)c(OC)c2)c2cc3c(cc2[C@H](O)[C@H]1CO)OCO3`, the T/C is 133 % of control under setting [2]; 125 and 132 % of control under setting [3]; 142 % of control (dose: 400.0 mg/kg/injection, schedule: Q01DX005 (ip), vehicle: saline with Tween-80). As for `CC(Cl)C(=O)N/N=C(/c1ccccc1)C(C)(C)C` (stereo not given), the survivor count under setting [4] is 3 of 6. As to `COc1ccc(C2CC(=O)N(CN3CCN(c4ccccc4)CC3)C(=O)C2)cc1`, the survivor count is, setting by setting: under setting [5], 6 of 6; under setting [4], 5 of 6. `ClCCN1c2ccc3ccccc3c2Sc2ccc3ccccc3c21`: the survivor count under setting [3] is recorded as 6 of 6. Same read-out and setting: the figure for `O=c1[nH]cnc2c1ccc1[nH]ncc12` is 1 of 6.

For the compound `CCCC1OP(=O)(N2CC(C)N(P3(=O)OCC(CC)C(CCC)O3)CC2C)OCC1CC` (stereo not given), the survivor count under setting [6] is given as 5 of 5. `CCN(CC)CCN1C(=O)C2C3C=CC(C2C1=O)C1C2C(=O)N(CCN(CC)CC)C(=O)C2C31` (stereo not given): the survivor count (dose: 200.0 mg/kg/injection, schedule: Q01DX009 (ip), vehicle: water) was 1 of 6 and 2 of 5. Turning to `NC(=O)OCCCCOC(N)=O`, the survivor count under setting [7] is 6 of 6. Take `N#Cc1c(-c2ccccc2)c(-c2ccccc2)nn(CCC(=O)O)c1=O`: the survivor count (dose: 200.0 mg/kg/injection, schedule: Q04DX002 (ip), vehicle: distilled water + Tween-80) is on record as 2 of 6. For `CCCCCCCCCCCCSC1=C(Cl)C(=O)C(OC)=C(OC)C1=O`, the survivor count is given as 1 of 3 (dose: 100.0 mg/kg/injection, schedule: Q01DX Z (ip), vehicle: saline) and 0 of 3 (dose: 200.0 mg/kg/injection, schedule: Q01DX Z (ip), vehicle: saline). As for `COc1ccc(C2CC(=O)C=C3c4ccc(OC)cc4CCC32)cc1` (stereo not given), the survivor count under setting [7] is listed as 6 of 6. With `CN(CCCCN(C)CCOS(C)(=O)=O)CCOS(C)(=O)=O`, the T/C was 129 % of control (dose: 0.03 mg/kg/injection, schedule: Q01DX009 (ip), vehicle: saline) and 134 % of control (dose: 0.15 mg/kg/injection, schedule: Q01DX009 (ip), vehicle: saline). Further, the survivor count was 6 of 6 (dose: 0.2 mg/kg/injection, schedule: Q01DX009 (ip), vehicle: saline); 6 of 6 (dose: 2.5 mg/kg/injection, schedule: Q01DX009 (ip), vehicle: saline); 5 of 6 (dose: 5.0 mg/kg/injection, schedule: Q01DX009 (ip), vehicle: saline); 5 of 6 (dose: 20.0 mg/kg/injection, schedule: Q04DX003 (ip), vehicle: saline). `CCSc1nc2c(N)nc(N)nc2[nH]c1=O`: for the setting “dose: 400.0 mg/kg/injection, schedule: Q04DX003 (ip), vehicle: Klucel (hydroxypropylcellulose) (HPC)”, the survivor count is 0 of 6. As to `FC(F)(F)c1ccc2nc(Cl)[nH]c2c1`, under setting [3], the survivor count was 0 of 6. As for `CCCCN1C(=O)C2C3CCC(O3)C2C1=O` (stereo not given), under setting [8], the survivor count is recorded as 3 of 6. In the case of `O=C1CCS(=O)(=O)c2ccccc21`, the survivor count is, setting by setting: under setting [5], 6 of 6; under setting [4], 0 of 6; under setting [9], 0 of 6. `CCN(CC)CCNC(=O)c1nn(-c2ccccc2)c2c1CCc1ccccc1-2`: the survivor count runs as follows: (dose: 200.0 mg/kg/injection, schedule: Q04DX003 (ip), vehicle: saline) 1 of 6; under setting [1], 0 of 6. With `CCOC(=O)C1C(=O)C(=O)OC1CC(C)C` (stereo not given), the survivor count (dose: 100.0 mg/kg/injection, schedule: Q01DX005 (ip), vehicle: Klucel (hydroxypropylcellulose) (HPC)) is 2 of 5 and the survivor count under setting [6] is recorded as 0 of 5.

With `CCOCN(COCC)c1ccc(Cl)cc1`, the T/C was 126 % of control under setting [10] and 145 % of control under setting [5]. Consider `CCCCCCn1c(=O)cc2n(c1=O)CCC2`, for which the survivor count under setting [8] is 0 of 6. Regarding `COc1cc2c(OC)c(c1)CCC1=CC(=O)C(=CC1=O)CC2`, the survivor count under setting [11] is on record as 0 of 5. `CC(C)(c1ccc(OCC2CO2)cc1)c1ccc(OCC2CO2)cc1` (stereo not given): the T/C under setting [5] was 131 % of control and the T/C under setting [4] is 131 % of control.

`COc1c(CBr)c(CBr)c(OC)c2c1C(=O)c1ccccc1C2=O`: the survivor count under setting [3] is reported as 4 of 6.

Consider `O=C1c2ccncc2C(=O)c2c1[nH]c1ccccc21`, for which the survivor count runs as follows: (dose: 7.5 mg/kg/injection, schedule: Q04DX002 (ip), vehicle: Klucel (hydroxypropylcellulose) (HPC)) 6 of 6; (dose: 15.0 mg/kg/injection, schedule: Q04DX002 (ip), vehicle: Klucel (hydroxypropylcellulose) (HPC)) 6 of 6; (dose: 60.0 mg/kg/injection, schedule: Q04DX002 (ip), vehicle: Klucel (hydroxypropylcellulose) (HPC)) 6 of 6.

For the compound `OC(c1cc(-c2ccc(C(F)(F)F)cc2)nc(-c2ccc(C(F)(F)F)cc2)c1)C1CCCCN1` (stereo not given), the survivor count under setting [10] is given as 6 of 6, the survivor count under setting [5] is on record as 0 of 6 and the survivor count under setting [4] is reported as 0 of 6. As for `Cc1ccc2nc(N(C)C)cc(N(C)C)c2c1`, the survivor count reads like this: under setting [12], 6 of 6; under setting [13], 5 of 6; under setting [7], 5 of 6. As for `Cn1c(O)c(N=O)c(=O)[nH]c1=O`, the survivor count reads like this: (dose: 200.0 mg/kg/injection, schedule: Q04DX002 (ip), vehicle: saline with Tween-80) 2 of 6; (dose: 400.0 mg/kg/injection, schedule: Q04DX002 (ip), vehicle: saline with Tween-80) 0 of 6. For the compound `Cc1cc(C)n(-c2ccc(S(=O)(=O)N3CC(=O)N(c4ccccc4)C3=S)cc2)n1`, under setting [3], the survivor count is given as 6 of 6. Take `Cc1nn(C(=O)c2cccnc2)c(-c2ccccc2)c1N=Nc1ccc(S(=O)(=O)N=C(N)N)cc1`: the survivor count (dose: 25.0 mg/kg/injection, schedule: Q01DX005 (ip), vehicle: saline with Tween-80) is listed as 6 of 6; the survivor count (dose: 50.0 mg/kg/injection, schedule: Q01DX005 (ip), vehicle: saline with Tween-80) is given as 6 of 6; the survivor count under setting [2] is 6 of 6; the survivor count under setting [3] is listed as 6 of 6. As to `COc1cccc2cc(-n3nnc4ccccc43)c(=O)oc12`, the survivor count (dose: 120.0 mg/kg/injection, schedule: Q01DX005 (ip), vehicle: saline with Tween-80) is 0 of 6 and 6 of 6. Regarding `CCCCC(CN(C)C)C(=O)/C=C/c1ccccc1` (stereo not given), where the note is “dose: 240.0 mg/kg/injection, schedule: Q01DX005 (ip), vehicle: saline”, the survivor count is on record as 0 of 6.

For the compound `FC(F)(F)Sc1c(SC(F)(F)F)c(SC(F)(F)F)n(-n2c(SC(F)(F)F)c(SC(F)(F)F)c(SC(F)(F)F)c2SC(F)(F)F)c1SC(F)(F)F`, the survivor count by setting is: (dose: 120.0 mg/kg/injection, schedule: Q01DX005 (ip), vehicle: Klucel (hydroxypropylcellulose) (HPC)) 0 of 6; (dose: 240.0 mg/kg/injection, schedule: Q01DX005 (ip), vehicle: Klucel (hydroxypropylcellulose) (HPC)) 0 of 6. In the case of `O=C=N[Si](c1ccccc1)(c1ccccc1)c1ccccc1`, the survivor count (dose: 400.0 mg/kg/injection, schedule: Q01DX001 (ip), vehicle: saline with Tween-80) is 5 of 6. On to `CC(=O)OCC1=CCCC1=O`, for which the survivor count by setting is: under setting [12], 4 of 6; under setting [13], 0 of 6; under setting [7], 0 of 6. Turning to `COC(=O)[C@H](NC(=O)c1ccccc1)[C@@H](O)/C=C/c1ccccc1`, the survivor count under setting [2] is recorded as 6 of 6.

For `CC(=O)OCc1c(Cl)nc2sccn12`, under setting [11], the survivor count is 0 of 6.

For `CN1CCc2cccc3c2[C@H]1Cc1ccc(O)c(O)c1-3`, the survivor count under setting [6] is reported as 4 of 5. For the compound `CCCCCCC1NC1Cc1ccc(Cl)cc1` (stereo not given), the survivor count is, setting by setting: under setting [5], 0 of 6; under setting [4], 0 of 6; under setting [9], 0 of 6.
